Measured values as given in PubChem BioAssay AID2685 (National Center for Advancing Translational Sciences (NCATS), 2010).
The other results are listed elsewhere or left out. The main result of the screen is listed elsewhere. These columns were measured beside it and carry no call. Most of these compounds were active or inconclusive in the main read-out, so they are no random draw. The note in brackets gives the kind of curve behind each potency; many fits are weak.

Test: qHTS Assay for Lipid Storage Modulators in Drosophila S3 Cells;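 on cell number change: cells counted by Cell Tracker Red CMTPX staining in the red channel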
Details: BODIPY lipid droplet fluorescence, 18-24 h; for cell number change: measured here: cell count max response, cells fed with added oleic acid
In short: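 Drosophila S3 cells loaded with oleic acid (400 uM, as added) and compounds at several concentrations; lipid droplets imaged by 488-nm laser-scanning cytometry, 500–530 nm intensity and object ratio to cell channel. Percent activity normalized to 20 uM Triacsin C.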

[1] = measured here: lipid fluorescence (Fed channel) AC50, cells fed with added oleic acid
[2] = measured here: cell number channel AC50, cells fed with added oleic acid

| Compound | AC50 [1] | cell number change [%] | AC50 [2] |
| --- | --- | --- | --- |
| O=C(CCc1nc2ccccc2[nH]c1=O)OCC(=O)c1cccc2ccccc12 | 29.1 µM [rising, partial curve, poor fit] | – | – |
| O=C(c1ccco1)N(CC1CCCO1)c1nc(-c2ccccc2)cs1 (stereo not given) | 0.13 µM [rising, full curve, poor fit] | 4.2 | – |
| Cc1ccc(NC(=O)CC2S/C(=N/c3nccs3)N(C)C2=O)cc1C (stereo not given) | 0.291 µM [rising, partial curve, poor fit] | 27.8 | 2.59 µM [rising, full curve, poor fit] |
| NS(=O)(=O)c1ccc(S(=O)(=O)N2CCCC2)cc1 | 23.1 µM [falling, single point] | 20 | – |
| CCOC(=O)c1c(CS(=O)(=O)c2ccccc2)n(C)c2cc(Br)c(O)cc12 | – | -23.9 | 3.26 µM [falling, full curve, poor fit] |
| O=C1OC(c2ccco2)=N/C1=C\c1ccc(-c2cccc(C(F)(F)F)c2)o1 | 0.291 µM [rising, full curve] | -18.9 | 3.66 µM [rising, partial curve] |
| N#Cc1ccccc1NC(=O)COC(=O)C1CCN(C(=O)c2ccc(Cl)cc2)CC1 | 0.164 µM [falling, full curve] | -45.6 | 14.6 µM [falling, partial curve, poor fit] |
| CCOC(=O)C1=C(C)NC2=C(C(=O)c3ccccc32)C1c1cccnc1 (stereo not given) | – | -13.7 | – |
| CCN(CC)S(=O)(=O)N1CCC(C(=O)NC(C)CCc2ccccc2)CC1 (stereo not given) | – | -0.558 | – |
| COc1ccc(OCC(=O)Nc2ccc(C(=O)Nc3ccccc3C(=O)O)cc2)cc1 | 29.1 µM [rising, single point] | -15.3 | – |
| COc1cccc(NC(=O)CN(C)C(=O)c2ccccc2Sc2ccccc2C#N)c1 | 6.51 µM [falling, single point] | 27.9 | – |
| CCCCN(C(=O)c1cccc(-n2cccc2)c1)c1c(N)n(Cc2ccccc2)c(=O)[nH]c1=O | – | -17.2 | – |
| CC1(C)CC(=O)c2sc(N3CCCCC3)nc2C1 | 0.092 µM [falling, single point] | 31.6 | 14.6 µM [rising, single point] |
| O=c1[nH]c2ccc(Cl)cc2c(-c2ccccc2)c1N1CCN(CCO)CC1 | – | 10.3 | – |
| COc1ccc(N2C(=O)C(Cl)=C(Oc3cccc(OC)c3)C2=O)cc1 | 29.1 µM [falling, single point] | -24.2 | 6.51 µM [falling, single point] |
| CC1=C(C(=O)OCC2CCCO2)C(c2ccc(C)o2)C2=C(CC(c3ccc(N(C)C)cc3)CC2=O)N1 (stereo not given) | 1.3 µM [rising, partial curve] | 33.7 | 1.84 µM [rising, partial curve] |
| C=CCN(C(=O)c1csnn1)C(C(=O)NC1CCCCC1)c1ccccc1F (stereo not given) | 16.4 µM [falling, partial curve] | – | – |
| O=C(NCCc1ccc2c(c1)OCCO2)c1cccc(F)c1 | 0.206 µM [falling, full curve, poor fit] | – | 3.66 µM [rising, single point] |
| COC(=O)C1=C(C)N(CCc2ccccc2)C(=O)C1 | 1.16 µM [falling, single point] | -14.1 | – |
| COc1ccc(-c2cc(=O)oc3cc(OCC(=O)NCCCn4ccnc4)ccc23)cc1 | 8.2 µM [falling, partial curve, poor fit] | -12.8 | – |

| Compound | AC50 [1] | cell number change [%] | AC50 [2] |
| --- | --- | --- | --- |
| C#CCOc1c(Br)cc(/C=C2/C(=O)ON=C2C)cc1OCC | 4.61 µM [rising, partial curve] | 25.4 | – |
| COc1cc2cc(C(c3nnnn3Cc3ccc(F)cc3)N3CCCCCC3)c(=O)[nH]c2cc1OC (stereo not given) | 0.92 µM [rising, full curve, poor fit] | -4.76 | – |
| O=C(c1ccc(COc2ccccc2Br)o1)N1N=C(C(F)F)CC1(O)C(F)F (stereo not given) | 29.1 µM [falling, single point] | -71 | 20.6 µM [falling, single point] |
| CCn1cc(C(=O)NCc2ccc3c(c2)OCO3)c(=O)c2cc(F)c(N3CCN(C(=O)c4ccco4)CC3)cc21 | 0.461 µM [rising, partial curve, poor fit] | -9.93 | – |
| COc1cccc(/C=N/NC(=O)C(=O)NCc2ccco2)c1O | 0.58 µM [falling, single point] | -11.3 | – |
| COc1ccc(OC(=O)CCCN2C(=O)c3ccccc3C2=O)cc1 | – | -12.2 | 6.51 µM [rising, single point] |
| Cn1c(=O)n(-c2ccccc2)c(=O)c2c3c(sc21)COC(C)(C)C3 | 0.082 µM [falling, single point] | 33.6 | 29.1 µM [rising, single point] |
| CCOC(=O)N1CCC(NC(=O)CCN2C(=O)COc3ccccc32)CC1 | – | -54.2 | 25.9 µM [falling, partial curve] |
| CS(=O)(=O)N(CC(=O)N1CCOCC1)c1cccc(Cl)c1Cl | – | -6.04 | – |
| COc1ccc2cc1Oc1ccc(cc1)CC1c3c(cc(OC)c4c3Oc3cc5c(cc3O4)CCNC5C2)CCN1C (stereo not given) | – | -12.3 | – |
| CC1(C)C(=O)N(CCN2CCC(C(=O)c3ccc(F)cc3)CC2)c2ccccc21 | 20.6 µM [rising, single point] | 19.3 | – |
| CCOC(=O)CSc1nnc(-c2ccco2)n1C | 0.206 µM [falling, full curve, poor fit] | 0.586 | – |
| CCN(Cc1ccccc1)S(=O)(=O)c1ccc(C(=O)N(CCCN(C)C)c2nc3ccc(F)cc3s2)cc1 | – | 18.3 | – |
| CCN1CCN(C(=O)CN(c2ccc(F)c(Cl)c2)S(C)(=O)=O)CC1 | 0.116 µM [falling, full curve] | -51.9 | 6.51 µM [falling, partial curve, poor fit] |
| COc1cc2cccc(OC)c(=O)c2c(O)c1OC | – | 15.7 | – |
| Cc1nn(C2CCCO2)c(=O)nc1N (stereo not given) | 6.51 µM [falling, partial curve, poor fit] | 8.71 | – |
| CCN(CC(=O)Nc1c(F)cccc1F)C(=O)CCCOc1ccc(OC)cc1 | 29.1 µM [falling, single point] | -11.6 | – |
| CCc1ccc(NC(=O)c2ccc3c(=O)n4c(nc3c2)CCCCC4)cc1 | 0.082 µM [rising, partial curve, poor fit] | 8.75 | – |
| O=C(c1cccc(F)c1)N1CCN(CC2CC3C=CC2C3)CC1 (stereo not given) | 0.0058 µM [rising, full curve, poor fit] | -59.8 | 25.9 µM [falling, single point] |
| COC(=O)c1ccccc1NC(=O)c1cc([N+](=O)[O-])nn1Cc1ccccc1 | 18.4 µM [rising, partial curve] | 171 | 23.1 µM [rising, partial curve] |

Structural class: the compounds so far with two or more sulfur atoms.

| Compound | AC50 [1] | cell number change [%] | AC50 [2] |
| --- | --- | --- | --- |
| Cc1ccc(NC(=O)CC2S/C(=N/c3nccs3)N(C)C2=O)cc1C (stereo not given) | 0.291 µM [rising, partial curve, poor fit] | 27.8 | 2.59 µM [rising, full curve, poor fit] |
| NS(=O)(=O)c1ccc(S(=O)(=O)N2CCCC2)cc1 | 23.1 µM [falling, single point] | 20 | – |
| CCN(Cc1ccccc1)S(=O)(=O)c1ccc(C(=O)N(CCCN(C)C)c2nc3ccc(F)cc3s2)cc1 | – | 18.3 | – |

Remaining list, next part:

| Compound | AC50 [1] | cell number change [%] | AC50 [2] |
| --- | --- | --- | --- |
| Cc1nc2ccccn2c1C(=O)NNS(=O)(=O)c1ccc(C(C)(C)C)cc1 | 25.9 µM [falling, partial curve] | -68.8 | 23.1 µM [falling, single point] |
| COc1ccccc1NC(=O)CSc1nc(=O)n2cc(C)ccc2n1 | – | -16.1 | – |
| COc1ccccc1C(=O)NC(=O)COC(=O)C1CC1C (stereo not given) | 0.326 µM [falling, full curve, poor fit] | -5.71 | 0.82 µM [falling, full curve, poor fit] |
| COC(=O)c1ccc(Cn2c(O)c(N=NC(N)=S)c3ccccc32)o1 | – | 42.9 | 0.291 µM [rising, full curve] |
| Cc1nnnn1/C(=C\c1ccccc1)C(=O)OCC(=O)N(C)C1CCS(=O)(=O)C1 (stereo not given) | 0.651 µM [falling, partial curve, poor fit] | -25.2 | 0.461 µM [falling, full curve, poor fit] |
| CCOc1ccc(S(=O)(=O)N(CC)CC)cc1NC(=O)CSCc1c(C)noc1C | 25.9 µM [rising, single point] | 0.623 | – |
| CCCCNC(=O)COC(=O)c1ccc(N(C)C)cc1 | – | 1.17 | – |
| COc1ccc(-c2csc3ncnc(N4CCN(c5ccccc5)CC4)c23)cc1 | – | -42.1 | 13 µM [falling, partial curve] |
| COc1cc(OC)cc(C(=O)N2CCN(c3ccccn3)CC2)c1 | 0.411 µM [rising, partial curve, poor fit] | -4.19 | – |
| N#CC1(c2ccc(NC(=O)c3ccccc3)cc2)CCCC1 | – | 2.67 | – |
| COC(=O)c1ccc(NC(=O)CC2C(=O)N(c3ccc(C)cc3)C(=O)N2CC(C)C)cc1 (stereo not given) | – | 16.7 | 0.103 µM [falling, full curve, poor fit] |
| CCN(CC)c1ccc(NC(=O)CCc2nnc3ccc(N4CCCCC4)nn23)c(C)c1 | 2.59 µM [falling, full curve] | -5.19 | – |
| CCCCCC(=O)NNC(=S)NC(=O)c1ccc([N+](=O)[O-])cc1 | – | -8.28 | – |
| CC(=O)C1=C(C)Nc2ncnn2C1c1ccc(O)cc1 (stereo not given) | 0.731 µM [falling, full curve] | – | – |
| O=C(O)c1ccccc1C(=O)NNc1ccc(F)cc1F | – | 78 | – |
| O=C(COc1ccc(-n2cnnn2)cc1)Nc1ccccc1Cl | 0.00461 µM [falling, full curve, poor fit] | 5.86 | – |
| Nc1nc(CN2CCN(c3cccc(Cl)c3)CC2)nc(N2CCCc3ccccc32)n1 | – | 14.6 | – |
| CC(c1n[nH]c(=S)n1-c1ccc(F)cc1)N1CCCCC1 (stereo not given) | – | 24.1 | 0.00461 µM [rising, full curve, poor fit] |
| CCOc1ccc(CNC(=O)C2CCN(C(=O)N3CC(C)Oc4ccccc43)CC2)cc1 (stereo not given) | 6.51 µM [rising, partial curve, poor fit] | 19 | – |
